Source: article PMC6950218 (Journal of Medicinal Chemistry, 2011)

PAMPA (% absorbed): low
Compound: NCC(=O)N1CCn2c(nc(-c3ccc(F)cc3)c2Nc2ccc(Cl)c(F)c2)C1 [Compound 31, 2-Amino-1-(3-(4-chloro-3-fluorophenylamino)-2-(4-fluorophenyl)-5,6-dihydroimidazo[1,2-a]pyrazin-7(8H)-yl)ethanone]
